Measurements taken from patent US20050288225A1.
Results are given in words; binding and its absence hold for the method and conditions named. For part of these data: Binding seen in cells or lysates may run through a third protein. Some binding calls cover weakened binding; strength is not graded here. For part of these data: Where a sequence is shown, tags or fusion partners need not be part of it.

The chains behind the UniProt entries cited, without tags or fusion partners. Where a name states a change or a piece, a line headed by the entry shows the natural chain unless it says otherwise.
UniProt P10415: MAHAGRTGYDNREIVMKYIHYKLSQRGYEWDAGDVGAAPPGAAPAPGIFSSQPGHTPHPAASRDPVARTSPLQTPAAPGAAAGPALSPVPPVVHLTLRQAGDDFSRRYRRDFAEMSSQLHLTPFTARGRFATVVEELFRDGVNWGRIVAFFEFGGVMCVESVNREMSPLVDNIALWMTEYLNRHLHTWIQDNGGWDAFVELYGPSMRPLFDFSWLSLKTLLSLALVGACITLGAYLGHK
UniProt O43353: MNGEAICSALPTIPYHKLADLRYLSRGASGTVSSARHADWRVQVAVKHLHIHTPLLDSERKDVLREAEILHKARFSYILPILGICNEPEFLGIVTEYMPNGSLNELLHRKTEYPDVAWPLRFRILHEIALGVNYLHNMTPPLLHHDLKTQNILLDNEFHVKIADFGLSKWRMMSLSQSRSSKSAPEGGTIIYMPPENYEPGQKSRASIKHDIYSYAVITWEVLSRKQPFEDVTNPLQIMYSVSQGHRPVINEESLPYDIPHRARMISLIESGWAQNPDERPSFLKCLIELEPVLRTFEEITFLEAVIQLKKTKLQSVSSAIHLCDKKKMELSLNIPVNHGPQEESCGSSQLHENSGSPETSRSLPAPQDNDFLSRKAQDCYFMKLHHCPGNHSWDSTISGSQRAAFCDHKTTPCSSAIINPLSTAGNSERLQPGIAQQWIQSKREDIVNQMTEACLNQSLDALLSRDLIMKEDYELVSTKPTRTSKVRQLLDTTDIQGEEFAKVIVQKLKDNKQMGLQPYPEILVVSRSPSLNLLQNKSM

What was measured:
[1] = target: T1, Flag-tagged TRAF1 (UniProt Q13077); assay: co-immunoprecipitation from transfected 293 cells (legend of FIG. 8)
T1 sequence (looked up): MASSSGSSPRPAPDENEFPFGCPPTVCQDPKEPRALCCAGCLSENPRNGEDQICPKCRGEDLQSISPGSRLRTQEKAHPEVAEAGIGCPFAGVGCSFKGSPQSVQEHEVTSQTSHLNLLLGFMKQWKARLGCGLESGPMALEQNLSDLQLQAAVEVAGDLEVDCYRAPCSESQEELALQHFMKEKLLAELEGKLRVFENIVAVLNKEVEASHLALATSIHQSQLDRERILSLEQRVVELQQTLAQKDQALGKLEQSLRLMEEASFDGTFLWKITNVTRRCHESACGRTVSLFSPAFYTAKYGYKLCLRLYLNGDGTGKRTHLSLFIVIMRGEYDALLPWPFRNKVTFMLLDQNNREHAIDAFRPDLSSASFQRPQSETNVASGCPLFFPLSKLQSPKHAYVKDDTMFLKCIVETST

[2] = target: T1, Flag-tagged TRAF1; assay: co-immunoprecipitation from transfected 293 cells: anti-FLAG IP, anti-HA western blot
[3] = target: BCL2 (UniProt P10415); assay: yeast two-hybrid binding assay

binding [1]	binding [2]	binding [3]	Substance
binds	binds	–	HA-tagged B1 protein (from UniProt O43353 1-540) (enzyme)
–	–	binds	truncated B1 having only the intermediate region and the C-terminal CARD region (from UniProt O43353 315-540)
